Here are results for 1 substance from article doi:10.1101/2024.06.24.600492.

By UniProt entry, the sequences of proteins in these tests, tags left out. Residues count along the entry.
UniProt P18206, 1-836: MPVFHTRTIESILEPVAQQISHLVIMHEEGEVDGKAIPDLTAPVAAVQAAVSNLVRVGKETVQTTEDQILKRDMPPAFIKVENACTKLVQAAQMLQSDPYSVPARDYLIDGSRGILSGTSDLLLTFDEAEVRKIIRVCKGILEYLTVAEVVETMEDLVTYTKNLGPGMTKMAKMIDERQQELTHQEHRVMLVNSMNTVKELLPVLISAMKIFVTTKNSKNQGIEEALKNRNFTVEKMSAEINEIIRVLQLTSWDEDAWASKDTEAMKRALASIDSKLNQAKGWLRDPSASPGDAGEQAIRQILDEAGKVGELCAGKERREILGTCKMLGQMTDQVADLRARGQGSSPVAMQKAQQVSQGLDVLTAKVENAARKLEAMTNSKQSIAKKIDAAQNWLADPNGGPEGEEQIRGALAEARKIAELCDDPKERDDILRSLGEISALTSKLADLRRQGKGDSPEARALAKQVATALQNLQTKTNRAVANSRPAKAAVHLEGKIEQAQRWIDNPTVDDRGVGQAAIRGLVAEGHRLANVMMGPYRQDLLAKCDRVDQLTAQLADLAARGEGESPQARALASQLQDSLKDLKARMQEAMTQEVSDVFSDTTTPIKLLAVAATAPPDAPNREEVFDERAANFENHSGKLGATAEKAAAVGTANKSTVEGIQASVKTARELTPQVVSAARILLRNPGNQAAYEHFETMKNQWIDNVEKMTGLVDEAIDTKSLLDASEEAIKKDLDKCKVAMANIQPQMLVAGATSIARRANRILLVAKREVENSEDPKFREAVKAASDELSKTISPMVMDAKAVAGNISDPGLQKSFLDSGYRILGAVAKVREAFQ

Results are given in words; binding and its absence hold for the method and conditions named. Binding seen in cells or lysates may run through a third protein. Some entries that bind do so weakly or less than the wild type.

The target in this assay is 3xFLAG-Sca4 (full-length R. parkeri Sca4) (Rickettsia parkeri) (UniProt Q9AJ75). Description: co-IP.

Consider “V5-vinculin head domain (V5-Vinc 1-836aa) (from UniProt P18206 1-836) (domain or fragment)”, for which the binding entry is “binds”.
